These results are taken from PMC7244013.

No constants are given. Whether binding was seen depends on the method and setting. Binding seen in cells or lysates may run through a third protein. Some results given as binding are weak or reduced against the parent protein; the word gives no strength. For some of these results: Where a sequence is shown, tags or fusion partners need not be part of it.

The target in assay [1] is T1, fibroblast growth factor 7 (FGF7) (human) (UniProt P21781).
T1 sequence: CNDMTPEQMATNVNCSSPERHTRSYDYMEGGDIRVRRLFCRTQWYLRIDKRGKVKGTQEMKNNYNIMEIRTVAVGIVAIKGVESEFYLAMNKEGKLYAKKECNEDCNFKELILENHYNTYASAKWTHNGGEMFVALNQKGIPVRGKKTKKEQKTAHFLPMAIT
Kind of assay: co-IP; HEK293T co-expressing FGF7, PLAC1 and the FGFR2IIIb (D1-D3)-rabbit IgG fusion; FGF7-specific IP from cell extracts, immobilized IgG as control; Western blot for FGF7, PLAC1 and FGFR2IIIb.

A further assay addresses T2, myc-tagged FGF-8 (human) (UniProt P55075).
T2 sequence: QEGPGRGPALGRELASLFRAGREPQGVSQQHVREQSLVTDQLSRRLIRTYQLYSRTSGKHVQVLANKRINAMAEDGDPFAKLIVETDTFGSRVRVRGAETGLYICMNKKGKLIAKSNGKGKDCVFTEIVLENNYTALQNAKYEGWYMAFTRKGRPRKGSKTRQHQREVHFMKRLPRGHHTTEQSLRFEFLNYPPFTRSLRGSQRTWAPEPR
Kind of assay: co-IP; HEK293T co-transfected with PLAC1 and one of six C-terminally myc-tagged FGFs; IP with anti-myc antibody, mouse serum as control; Western blot for PLAC1. For orientation: In western blotting, separated proteins are transferred to a membrane and probed.

Assay [2] deals with T3, myc-tagged FGF-10 (human) (UniProt O15520).
T3 sequence: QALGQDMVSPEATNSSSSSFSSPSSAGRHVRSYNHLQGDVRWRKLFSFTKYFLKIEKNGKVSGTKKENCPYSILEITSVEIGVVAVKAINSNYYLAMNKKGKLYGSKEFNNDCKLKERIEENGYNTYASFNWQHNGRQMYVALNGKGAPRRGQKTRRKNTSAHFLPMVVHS
Described as above.

A further assay concerns the target T4, myc-tagged FGF-3 (human) (UniProt P11487).
T4 sequence: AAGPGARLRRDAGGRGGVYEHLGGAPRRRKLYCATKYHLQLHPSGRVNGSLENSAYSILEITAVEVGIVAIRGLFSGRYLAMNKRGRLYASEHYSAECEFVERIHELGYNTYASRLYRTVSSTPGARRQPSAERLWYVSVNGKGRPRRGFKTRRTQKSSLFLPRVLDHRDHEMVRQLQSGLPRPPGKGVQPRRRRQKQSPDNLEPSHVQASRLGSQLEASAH
Described as above.

The target of a further assay is T5, myc-tagged FGF7 (human) (UniProt P21781).
T5 sequence: T1 sequence
Described as above.

Assay [3] deals with T1, fibroblast growth factor 7 (FGF7) (human). As to the kind of experiment: co-IP; lysates of PLAC1 and/or FGF7-transfected HEK293T cells; IP with anti-FGF7 or anti-PLAC1 antibodies cross-linked to beads, 2 h at 4°C; corresponding IgG as control; Western blot with anti-FGF7 and anti-PLAC1.

For the molecule “soluble FGFR2IIIb-IgG fusion construct containing the extracellular D1-D3 region of FGFR2IIIb (aa 22-358) (from UniProt P21802-3 22-358) (Fc fusion)”, the binding result in assay [1] is listed as “binds”.

B1: PLAC1 (placenta enriched 1) (protein, UniProt Q9HBJ0 23-212)
chain: QSPMTVLCSIDWFMVTVHPFMLNNDVCVHFHELHLGLGCPPNHVQPHAYQFTYRVTECGIRAKAVSQDMVIYSTEIHYSSKGTPSKFVIPVSCAAPQKSPWLTKPCSMRVASKSRATAQKDEKCYEVFSLSQSSQRPNCDCPPCVFSEEEHTQVPCHQAGAQEAQPLQPSHFLDISEDWSLHTDDMIGSM
For B1, the binding entry with myc-tagged FGF-8 (human) is reported as “no binding”; in assay [2] it was “no binding”; with myc-tagged FGF-3 (human), “no binding”; with myc-tagged FGF7 (human), “binds”; in assay [3], “binds”; in assay [1], “binds”.
